# Values of other authors, collected in patent publication US9145376B2, “Quinazolinone inhibitors of dynein” (The Rockefeller University, priority 2011, dated 2015).
# At least one compound was matched to its structure with a doubt left.
# Test system: dynein motor domain
# Conditions: in vitro; cited from earlier work
smiles,measurement,value
COC1=C(Br)[C@@H](O)[C@]2(C=C1Br)CC(C(=O)NCCCOc1c(Br)cc(C/C(=N/O)C(=O)NCCc3c[nH]c(N)n3)cc1Br)=NO2 [purealin],ATPase activity of a dynein motor domain,partially inhibit
